Columns and labels:
β1-tubulin = experiment: Crystal structure of T2R-TTL complex, buried surface with β1-tubulin; design: species or system bovine; conditions: inter-dimer interface
α2-tubulin = experiment: Crystal structure of T2R-TTL complex, buried surface with α2-tubulin; design: species or system bovine; conditions: inter-dimer interface

Compound: CC[C@]1(O)C[C@@H]2CN(CCc3c([nH]c4ccccc34)[C@@](C(=O)OC)(c3cc4c(cc3OC)N(C)[C@H]3[C@@](O)(C(=O)OC)[C@H](OC(C)=O)[C@]5(CC)C=CCN6CC[C@]43[C@@H]65)C2)C1 [vinblastine]
- buried surface area with β1-tubulin subunit (β1-tubulin): 326 Å^2
- buried surface area with α2-tubulin subunit (α2-tubulin): 359 Å^2

Compound: monomethyl auristatin E [MMAE]
- buried surface area with β1-tubulin subunit (β1-tubulin): 457 Å^2
- buried surface area with α2-tubulin subunit (α2-tubulin): 273 Å^2

Reference: publication PMC4982639, “Structural Basis of Microtubule Destabilization by Potent Auristatin Anti-Mitotics” (PLoS ONE, 2016)
